Data on 35 targets can be found in the supplement of paper PMC12819154, “High-throughput peptide-centric local stability assay extends protein–ligand identification to membrane proteins, tissues and bacteria” (Nature Structural & Molecular Biology, 2025).

Amino acid sequences for entries named in this document (tags omitted). A change or cut given only in a name is not applied to a line headed by its entry.
UniProt Q8BVQ5: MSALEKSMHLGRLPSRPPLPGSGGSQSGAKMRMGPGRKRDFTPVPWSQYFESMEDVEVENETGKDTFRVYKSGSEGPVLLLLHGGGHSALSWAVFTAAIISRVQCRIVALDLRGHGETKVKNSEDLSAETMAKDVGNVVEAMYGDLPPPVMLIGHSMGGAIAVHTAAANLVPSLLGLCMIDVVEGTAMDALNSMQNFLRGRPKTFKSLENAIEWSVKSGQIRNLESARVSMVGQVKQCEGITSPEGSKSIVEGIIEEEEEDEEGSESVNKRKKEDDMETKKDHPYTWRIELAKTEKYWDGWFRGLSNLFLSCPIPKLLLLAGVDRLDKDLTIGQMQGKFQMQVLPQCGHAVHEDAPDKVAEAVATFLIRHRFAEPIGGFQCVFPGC
UniProt Q8C8T8: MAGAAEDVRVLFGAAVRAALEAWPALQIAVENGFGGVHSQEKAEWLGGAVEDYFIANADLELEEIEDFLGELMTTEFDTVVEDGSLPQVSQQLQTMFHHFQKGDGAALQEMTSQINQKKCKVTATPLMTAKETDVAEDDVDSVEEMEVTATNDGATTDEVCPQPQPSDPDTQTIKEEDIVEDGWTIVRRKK
UniProt Q8C033: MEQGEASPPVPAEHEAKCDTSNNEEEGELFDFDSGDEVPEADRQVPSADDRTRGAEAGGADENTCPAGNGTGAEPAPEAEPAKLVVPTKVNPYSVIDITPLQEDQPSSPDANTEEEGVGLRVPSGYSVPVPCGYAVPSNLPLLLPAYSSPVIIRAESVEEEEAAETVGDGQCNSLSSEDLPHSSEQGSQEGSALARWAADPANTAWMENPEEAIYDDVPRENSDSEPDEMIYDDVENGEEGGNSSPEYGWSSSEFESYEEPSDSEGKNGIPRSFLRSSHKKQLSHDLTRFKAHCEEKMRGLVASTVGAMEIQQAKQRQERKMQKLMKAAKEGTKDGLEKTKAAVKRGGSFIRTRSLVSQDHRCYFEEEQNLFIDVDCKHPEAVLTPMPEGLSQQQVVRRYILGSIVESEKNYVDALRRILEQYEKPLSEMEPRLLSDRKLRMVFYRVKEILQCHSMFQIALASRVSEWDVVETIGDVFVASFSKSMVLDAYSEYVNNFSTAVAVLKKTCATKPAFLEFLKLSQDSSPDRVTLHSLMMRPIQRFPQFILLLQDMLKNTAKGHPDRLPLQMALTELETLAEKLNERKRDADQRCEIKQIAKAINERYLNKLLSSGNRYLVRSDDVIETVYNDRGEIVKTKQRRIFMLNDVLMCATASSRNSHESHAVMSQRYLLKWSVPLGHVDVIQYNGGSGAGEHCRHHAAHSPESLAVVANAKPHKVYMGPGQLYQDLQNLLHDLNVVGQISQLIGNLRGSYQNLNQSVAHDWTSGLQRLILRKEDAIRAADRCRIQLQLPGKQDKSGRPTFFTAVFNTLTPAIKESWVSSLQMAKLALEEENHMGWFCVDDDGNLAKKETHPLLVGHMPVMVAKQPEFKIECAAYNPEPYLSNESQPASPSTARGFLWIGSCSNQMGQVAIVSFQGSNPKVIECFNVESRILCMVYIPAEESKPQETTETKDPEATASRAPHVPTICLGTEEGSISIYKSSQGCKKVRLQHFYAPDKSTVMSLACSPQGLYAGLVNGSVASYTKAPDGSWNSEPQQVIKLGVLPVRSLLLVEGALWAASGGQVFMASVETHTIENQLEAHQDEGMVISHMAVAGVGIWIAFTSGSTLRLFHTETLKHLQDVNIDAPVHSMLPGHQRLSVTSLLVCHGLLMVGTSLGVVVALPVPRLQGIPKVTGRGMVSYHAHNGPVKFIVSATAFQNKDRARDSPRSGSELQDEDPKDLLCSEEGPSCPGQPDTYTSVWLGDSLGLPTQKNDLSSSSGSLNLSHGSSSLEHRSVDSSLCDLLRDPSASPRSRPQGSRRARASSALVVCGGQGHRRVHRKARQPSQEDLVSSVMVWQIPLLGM
UniProt Q8BXV2: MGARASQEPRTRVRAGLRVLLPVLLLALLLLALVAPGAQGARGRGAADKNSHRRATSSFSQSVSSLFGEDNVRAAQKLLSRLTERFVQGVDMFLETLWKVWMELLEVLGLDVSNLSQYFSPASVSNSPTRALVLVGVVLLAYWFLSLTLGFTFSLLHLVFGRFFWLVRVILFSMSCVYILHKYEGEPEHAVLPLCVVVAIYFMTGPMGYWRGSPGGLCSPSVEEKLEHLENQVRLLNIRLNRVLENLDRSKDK
UniProt Q8C863: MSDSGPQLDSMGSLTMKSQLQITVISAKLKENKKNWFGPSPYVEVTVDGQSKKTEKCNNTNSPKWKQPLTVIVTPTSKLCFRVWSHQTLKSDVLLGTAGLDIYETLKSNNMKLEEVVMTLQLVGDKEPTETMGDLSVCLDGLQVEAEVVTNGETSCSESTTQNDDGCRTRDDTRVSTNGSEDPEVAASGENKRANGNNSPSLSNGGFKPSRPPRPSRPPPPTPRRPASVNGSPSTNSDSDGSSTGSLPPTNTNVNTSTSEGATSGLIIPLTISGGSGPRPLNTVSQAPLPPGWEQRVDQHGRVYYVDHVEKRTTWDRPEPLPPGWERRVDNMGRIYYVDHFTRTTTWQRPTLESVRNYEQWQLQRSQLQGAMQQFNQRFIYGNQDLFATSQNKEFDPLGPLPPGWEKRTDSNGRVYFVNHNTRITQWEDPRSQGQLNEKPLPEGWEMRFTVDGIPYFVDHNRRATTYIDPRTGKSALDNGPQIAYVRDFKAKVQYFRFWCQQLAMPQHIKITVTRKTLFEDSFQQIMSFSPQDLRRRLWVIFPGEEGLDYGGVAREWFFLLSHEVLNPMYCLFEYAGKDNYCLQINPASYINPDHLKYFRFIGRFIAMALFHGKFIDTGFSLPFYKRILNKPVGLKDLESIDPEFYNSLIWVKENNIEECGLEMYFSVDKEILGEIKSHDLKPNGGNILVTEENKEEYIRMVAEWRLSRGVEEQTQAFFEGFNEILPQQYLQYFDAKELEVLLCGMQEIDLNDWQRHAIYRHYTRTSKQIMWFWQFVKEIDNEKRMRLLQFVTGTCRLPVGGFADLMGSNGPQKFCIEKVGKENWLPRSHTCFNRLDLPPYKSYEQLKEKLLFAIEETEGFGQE
UniProt Q8C7H1: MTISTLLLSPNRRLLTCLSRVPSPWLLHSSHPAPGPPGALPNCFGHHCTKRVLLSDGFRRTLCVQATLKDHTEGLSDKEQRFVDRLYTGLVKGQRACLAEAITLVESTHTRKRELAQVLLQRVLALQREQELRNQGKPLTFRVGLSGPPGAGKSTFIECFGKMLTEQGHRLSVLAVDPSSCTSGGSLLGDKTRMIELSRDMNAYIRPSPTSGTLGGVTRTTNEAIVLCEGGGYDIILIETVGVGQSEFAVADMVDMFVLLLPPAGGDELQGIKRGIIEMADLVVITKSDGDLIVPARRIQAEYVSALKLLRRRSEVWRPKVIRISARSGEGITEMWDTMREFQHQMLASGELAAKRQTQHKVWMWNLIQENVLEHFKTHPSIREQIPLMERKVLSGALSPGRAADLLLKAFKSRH
UniProt Q8C0I4, whole entry: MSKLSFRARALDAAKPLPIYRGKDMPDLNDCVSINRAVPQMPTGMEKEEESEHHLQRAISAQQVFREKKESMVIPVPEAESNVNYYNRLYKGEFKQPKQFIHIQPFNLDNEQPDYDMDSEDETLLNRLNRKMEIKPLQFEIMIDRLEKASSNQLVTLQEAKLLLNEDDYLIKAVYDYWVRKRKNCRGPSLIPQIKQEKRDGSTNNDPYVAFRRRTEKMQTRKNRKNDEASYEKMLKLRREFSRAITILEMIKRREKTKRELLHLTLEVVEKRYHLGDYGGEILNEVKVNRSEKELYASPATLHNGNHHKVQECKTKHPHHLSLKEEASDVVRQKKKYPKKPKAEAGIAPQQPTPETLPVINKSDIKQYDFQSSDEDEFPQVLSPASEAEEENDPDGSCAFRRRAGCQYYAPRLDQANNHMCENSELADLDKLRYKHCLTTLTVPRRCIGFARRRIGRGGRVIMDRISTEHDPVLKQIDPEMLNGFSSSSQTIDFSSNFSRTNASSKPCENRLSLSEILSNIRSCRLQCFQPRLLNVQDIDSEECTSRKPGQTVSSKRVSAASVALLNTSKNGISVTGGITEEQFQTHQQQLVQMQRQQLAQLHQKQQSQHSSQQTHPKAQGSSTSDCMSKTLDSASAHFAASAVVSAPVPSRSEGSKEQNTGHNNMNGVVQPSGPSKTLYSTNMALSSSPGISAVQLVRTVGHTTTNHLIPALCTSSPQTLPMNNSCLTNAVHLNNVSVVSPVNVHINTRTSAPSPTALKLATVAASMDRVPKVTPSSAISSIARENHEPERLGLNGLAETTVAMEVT
UniProt Q8BWR8: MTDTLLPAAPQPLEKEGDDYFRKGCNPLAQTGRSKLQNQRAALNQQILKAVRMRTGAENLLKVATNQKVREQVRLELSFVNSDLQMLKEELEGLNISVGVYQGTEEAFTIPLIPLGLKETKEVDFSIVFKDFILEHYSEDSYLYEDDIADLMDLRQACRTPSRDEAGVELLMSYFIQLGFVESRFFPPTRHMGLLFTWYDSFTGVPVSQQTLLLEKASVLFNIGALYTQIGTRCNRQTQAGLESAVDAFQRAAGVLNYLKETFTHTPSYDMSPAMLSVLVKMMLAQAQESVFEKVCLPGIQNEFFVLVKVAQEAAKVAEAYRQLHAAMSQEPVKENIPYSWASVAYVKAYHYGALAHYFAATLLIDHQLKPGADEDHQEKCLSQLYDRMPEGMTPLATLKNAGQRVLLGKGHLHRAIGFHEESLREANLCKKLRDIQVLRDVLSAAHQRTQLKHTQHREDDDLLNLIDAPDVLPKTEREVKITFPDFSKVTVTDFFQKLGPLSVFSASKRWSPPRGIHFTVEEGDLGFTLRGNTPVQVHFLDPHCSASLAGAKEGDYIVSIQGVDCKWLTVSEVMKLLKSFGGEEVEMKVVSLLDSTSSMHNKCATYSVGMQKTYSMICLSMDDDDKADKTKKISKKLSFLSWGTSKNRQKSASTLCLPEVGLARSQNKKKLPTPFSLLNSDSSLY
UniProt Q8C754: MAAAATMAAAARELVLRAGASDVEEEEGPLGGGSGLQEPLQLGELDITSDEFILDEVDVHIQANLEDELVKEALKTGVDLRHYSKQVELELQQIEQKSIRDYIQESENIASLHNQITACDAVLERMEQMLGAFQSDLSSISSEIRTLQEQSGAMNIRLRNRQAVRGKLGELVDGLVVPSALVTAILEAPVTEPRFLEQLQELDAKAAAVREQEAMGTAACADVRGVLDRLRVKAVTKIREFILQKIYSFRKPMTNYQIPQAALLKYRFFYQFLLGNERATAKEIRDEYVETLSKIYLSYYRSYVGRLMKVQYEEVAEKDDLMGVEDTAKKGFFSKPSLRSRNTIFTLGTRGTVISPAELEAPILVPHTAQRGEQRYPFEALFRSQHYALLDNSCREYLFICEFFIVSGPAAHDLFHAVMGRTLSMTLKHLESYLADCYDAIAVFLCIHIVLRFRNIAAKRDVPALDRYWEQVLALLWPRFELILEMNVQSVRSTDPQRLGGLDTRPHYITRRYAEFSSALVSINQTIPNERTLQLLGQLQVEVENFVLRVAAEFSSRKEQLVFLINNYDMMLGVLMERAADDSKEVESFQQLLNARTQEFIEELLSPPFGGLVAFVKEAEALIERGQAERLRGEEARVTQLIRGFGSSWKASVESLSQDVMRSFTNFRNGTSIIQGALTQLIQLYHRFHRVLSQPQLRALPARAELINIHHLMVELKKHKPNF
UniProt Q8BWF0: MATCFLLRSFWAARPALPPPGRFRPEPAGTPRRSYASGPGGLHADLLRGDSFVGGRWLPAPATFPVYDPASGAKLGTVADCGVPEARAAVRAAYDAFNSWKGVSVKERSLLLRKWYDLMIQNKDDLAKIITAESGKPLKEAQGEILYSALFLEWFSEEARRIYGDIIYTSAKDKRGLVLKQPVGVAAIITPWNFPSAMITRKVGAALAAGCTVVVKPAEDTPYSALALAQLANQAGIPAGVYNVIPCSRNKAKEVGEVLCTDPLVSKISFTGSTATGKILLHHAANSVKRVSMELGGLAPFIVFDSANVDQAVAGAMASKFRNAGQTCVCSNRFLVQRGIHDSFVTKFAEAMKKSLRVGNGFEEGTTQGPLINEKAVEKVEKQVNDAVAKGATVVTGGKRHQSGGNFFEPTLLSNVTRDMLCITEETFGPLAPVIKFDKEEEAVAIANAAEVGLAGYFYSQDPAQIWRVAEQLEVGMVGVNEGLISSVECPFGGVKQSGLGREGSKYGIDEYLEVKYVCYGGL
UniProt Q8C1S0: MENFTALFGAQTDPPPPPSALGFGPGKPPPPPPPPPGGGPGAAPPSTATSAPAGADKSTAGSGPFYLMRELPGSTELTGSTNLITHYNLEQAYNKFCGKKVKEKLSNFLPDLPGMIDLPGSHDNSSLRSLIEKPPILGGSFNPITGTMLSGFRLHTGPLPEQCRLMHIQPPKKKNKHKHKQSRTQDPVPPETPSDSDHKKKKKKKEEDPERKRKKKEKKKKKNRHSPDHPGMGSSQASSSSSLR

Some of the results follow. Small differences around the control level are noise.

Compound in the assay: CN[C@@H]1C[C@H]2O[C@@](C)([C@@H]1OC)n1c3ccccc3c3c4c(c5c6ccccc6n2c5c31)C(=O)NC4 [staurosporine]
In words: log2 fold change of tryptic peptide abundance, ligand vs vehicle (limited proteolysis) (log2 ratio); higher = more trypsin-susceptible (destabilized). The following applies: ligand concentration: 20 uM; sample: mouse liver crude lysate; replicate design: treated separately.
Turning to “UniProt Q8BYH8 (peptide sequence: ELQNHLGLSAPVPR, peptide start residue: 1566)”, the log2 fold change amounted to 0.258.

Take “UniProt Q8BYN3 (peptide sequence: VFVVGESYTVVQRPSLK, peptide start residue: 200)”: the log2 fold change is -0.12.

For the target “UniProt Q8BVR6 (peptide sequence: KKQNVDGLVLDTLAVIR, peptide start residue: 96)”, the log2 fold change was -0.136.

Regarding “UniProt Q8BWL5 (peptide sequence: AILDKNTNQCK, peptide start residue: 87)”, the log2 fold change was 0.269.

Regarding “UniProt Q8C2L6 (peptide sequence: KYNGHIENKPLTIPK, peptide start residue: 65)”, the log2 fold change is 0.13.

With “UniProt Q8BX09 (peptide sequence: GLPLEGSTK, peptide start residue: 509)”, the log2 fold change turned out to be 0.108.

On to “UniProt Q8BW22 (peptide sequence: TAECTQYQQILHR, peptide start residue: 44)”, for which the log2 fold change was -0.267.

For “UniProt Q8C5P5 (peptide sequence: DVVAGIQHNFK, peptide start residue: 171)”, the log2 fold change was found to be 0.651.

As to “UniProt Q8BVQ5 (peptide sequence: NSEDLSAETMAK, peptide start residue: 122)”, the log2 fold change was -0.5.

Turning to “UniProt Q8BXC6 (peptide sequence: LDVQLASR, peptide start residue: 131)”, the log2 fold change is 0.105.

For the target “UniProt Q8C8T8 (peptide sequence: VTATPLMTAK, peptide start residue: 122)”, the log2 fold change is 0.0119.

As for “UniProt Q8C033 (peptide sequence: KEDAIRAADR, peptide start residue: 775)”, the log2 fold change was -0.335.

Regarding “UniProt Q8C092 (peptide sequence: QASDLSLIDKESDDVLER, peptide start residue: 510)”, the log2 fold change is -0.0831.

As to “UniProt Q8BXV2 (peptide sequence: LEHLENQVR, peptide start residue: 226)”, the log2 fold change was found to be 0.217.

Turning to “UniProt Q8C863 (peptide sequence: TTTWQRPTLESVR, peptide start residue: 344)”, the log2 fold change was -0.123.

As to “UniProt Q8C4V4 (peptide sequence: YSLEQIHWEVSK, peptide start residue: 403)”, the log2 fold change is -0.245.

For “UniProt Q8BYH7 (peptide sequence: LQNVPELK, peptide start residue: 296)”, the log2 fold change was -0.233.

“UniProt Q8C7H1 (peptide sequence: DHTEGLSDKEQR, peptide start residue: 70)”: the log2 fold change worked out at 0.28.

Consider “UniProt Q8BWQ5 (peptide sequence: HLGVEIEK, peptide start residue: 291)”, for which the log2 fold change worked out at 0.363.

On to “UniProt Q8C9A2 (peptide sequence: KAPEPGFQEQK, peptide start residue: 301)”, for which the log2 fold change is 0.387.

Turning to “UniProt Q8C129 (peptide sequence: LLGMSFMNR, peptide start residue: 76)”, the log2 fold change is -0.0529.

Consider “UniProt Q8BYZ7 (peptide sequence: YITENNR, peptide start residue: 60)”, for which the log2 fold change is -0.301.

For “UniProt Q8C1A5 (peptide sequence: TSILRPGGSEDASAMLK, peptide start residue: 643)”, the log2 fold change is -0.525.

Regarding “UniProt Q8C0I4 (peptide sequence: VSAASVALLNTSK, peptide start residue: 558)”, the log2 fold change is -0.43.

In the case of “UniProt Q8BWT1 (peptide sequence: TPFGAYGGLLK, peptide start residue: 15)”, the log2 fold change was -0.153.

As for “UniProt Q8BYL4 (peptide sequence: GLEALAANHAR, peptide start residue: 142)”, the log2 fold change worked out at 0.157.

For “UniProt Q8C1Y8 (peptide sequence: EGEEENKILFYHPNEVEKNEK, peptide start residue: 36)”, the log2 fold change is -0.493.

Take “UniProt Q8BWR8 (peptide sequence: ITFPDFSK, peptide start residue: 482)”: the log2 fold change was 0.567.

Regarding “UniProt Q8BZ20 (peptide sequence: TSLGTDALER, peptide start residue: 33)”, the log2 fold change was -0.161.

Take “UniProt Q8BYB9 (peptide sequence: TSPERDPLILLSR, peptide start residue: 214)”: the log2 fold change was 0.174.

“UniProt Q8C3F2 (peptide sequence: QGSSDVISK, peptide start residue: 1007)”: the log2 fold change is -0.379.

As for “UniProt Q8C5L3 (peptide sequence: GMSNNTPQLNR, peptide start residue: 88)”, the log2 fold change worked out at 0.129.

Take “UniProt Q8C754 (peptide sequence: KPMTNYQIPQAALLK, peptide start residue: 251)”: the log2 fold change worked out at 0.55.

As for “UniProt Q8BWF0 (peptide sequence: GATVVTGGKR, peptide start residue: 391)”, the log2 fold change came to 0.134.

With “UniProt Q8C1S0 (peptide sequence: HSPDHPGMGSSQASSSSSLR, peptide start residue: 225)”, the log2 fold change was -0.127.
